# Test results from patent US5945404A, “21-Substituted steroid compound” (priority 1993, dated 1999).
# Tested on: croton oil-induced granuloma
# Test: Croton Oil-induced Granuloma (granuloma pouch)
# Format: in vivo, male Sprague-Dawley rats
# Conditions: Rattus norvegicus, 168 h, read-out: Effects on pouch fluid (exudate) volume, per cent of inhibition over the control, 1.0 mg/rat; 7 days
# Method: Groups of 5 male Sprague-Dawley rats each weighing 160-180 g were used. Under ether anesthesia, the dorsum of animals was closely clipped, and air sac was formed by injecting air (20 ml) subcutaneously. Next day cotton seed oil containing 1% croton oil was injected into the air sac. Drugs to be tested were suspended in the cotton seed oil containing 1% croton oil, and administered. After 7 days, the blood was taken from the animal under ether anesthesia. Then, the granuloma pouch fluid (exudate) was collected, and the fluid volume was measured. The pouch wall formed around granuloma and thymus were also excised and weighed.
smiles,measurement,value
"CCCCC(=O)OCC(=O)[C@H]1[C@H](C)C[C@H]2[C@@H]3C[C@H](F)C4=CC(=O)C=C[C@]4(C)[C@@]3(F)[C@@H](O)C[C@@]21C [Diflucortolone valerate, reference compound]",inhibition in vivo at 1 mg,90.8 ± 3.3%
